These are yes or no findings as the source states them, for the method shown. Some results given as binding are weak or reduced against the parent protein; the word gives no strength.
Assays:
[1] = molecular target: Shed ALK extracellular domain fragment (ALK 1-654) (human) (UniProt Q9UM73); assay: ELISA on patient sera
[2] = molecular target: Full-length human anaplastic lymphoma kinase (ALK) receptor, wild type (human) (UniProt Q9UM73); assay: western blot of NB cell lysates
[3] = molecular target: Shed ALK extracellular domain fragment (ALK 1-654) (human) (UniProt Q9UM73); assay: sandwich ELISA, capture antibody
[4] = molecular target: Full-length human anaplastic lymphoma kinase (ALK) receptor, wild type (human) (UniProt Q9UM73); assay: immunoblotting, immunoprecipitation
[5] = molecular target: Full-length human anaplastic lymphoma kinase (ALK) receptor, wild type (human) (UniProt Q9UM73); assay: hybridoma clone screening (ELISA, flow cytometry)
[6] = molecular target: Shed ALK extracellular domain fragment (ALK 1-654) (human) (UniProt Q9UM73); assay: western blot of conditioned media of NGP and ALK-expressing 293T cells

Protein sequences, listed by entry. Tags and fused reporters are not part of them. Lines headed by an entry give the natural chain unless they say otherwise; changes in a name come on top.
UniProt Q9UM73: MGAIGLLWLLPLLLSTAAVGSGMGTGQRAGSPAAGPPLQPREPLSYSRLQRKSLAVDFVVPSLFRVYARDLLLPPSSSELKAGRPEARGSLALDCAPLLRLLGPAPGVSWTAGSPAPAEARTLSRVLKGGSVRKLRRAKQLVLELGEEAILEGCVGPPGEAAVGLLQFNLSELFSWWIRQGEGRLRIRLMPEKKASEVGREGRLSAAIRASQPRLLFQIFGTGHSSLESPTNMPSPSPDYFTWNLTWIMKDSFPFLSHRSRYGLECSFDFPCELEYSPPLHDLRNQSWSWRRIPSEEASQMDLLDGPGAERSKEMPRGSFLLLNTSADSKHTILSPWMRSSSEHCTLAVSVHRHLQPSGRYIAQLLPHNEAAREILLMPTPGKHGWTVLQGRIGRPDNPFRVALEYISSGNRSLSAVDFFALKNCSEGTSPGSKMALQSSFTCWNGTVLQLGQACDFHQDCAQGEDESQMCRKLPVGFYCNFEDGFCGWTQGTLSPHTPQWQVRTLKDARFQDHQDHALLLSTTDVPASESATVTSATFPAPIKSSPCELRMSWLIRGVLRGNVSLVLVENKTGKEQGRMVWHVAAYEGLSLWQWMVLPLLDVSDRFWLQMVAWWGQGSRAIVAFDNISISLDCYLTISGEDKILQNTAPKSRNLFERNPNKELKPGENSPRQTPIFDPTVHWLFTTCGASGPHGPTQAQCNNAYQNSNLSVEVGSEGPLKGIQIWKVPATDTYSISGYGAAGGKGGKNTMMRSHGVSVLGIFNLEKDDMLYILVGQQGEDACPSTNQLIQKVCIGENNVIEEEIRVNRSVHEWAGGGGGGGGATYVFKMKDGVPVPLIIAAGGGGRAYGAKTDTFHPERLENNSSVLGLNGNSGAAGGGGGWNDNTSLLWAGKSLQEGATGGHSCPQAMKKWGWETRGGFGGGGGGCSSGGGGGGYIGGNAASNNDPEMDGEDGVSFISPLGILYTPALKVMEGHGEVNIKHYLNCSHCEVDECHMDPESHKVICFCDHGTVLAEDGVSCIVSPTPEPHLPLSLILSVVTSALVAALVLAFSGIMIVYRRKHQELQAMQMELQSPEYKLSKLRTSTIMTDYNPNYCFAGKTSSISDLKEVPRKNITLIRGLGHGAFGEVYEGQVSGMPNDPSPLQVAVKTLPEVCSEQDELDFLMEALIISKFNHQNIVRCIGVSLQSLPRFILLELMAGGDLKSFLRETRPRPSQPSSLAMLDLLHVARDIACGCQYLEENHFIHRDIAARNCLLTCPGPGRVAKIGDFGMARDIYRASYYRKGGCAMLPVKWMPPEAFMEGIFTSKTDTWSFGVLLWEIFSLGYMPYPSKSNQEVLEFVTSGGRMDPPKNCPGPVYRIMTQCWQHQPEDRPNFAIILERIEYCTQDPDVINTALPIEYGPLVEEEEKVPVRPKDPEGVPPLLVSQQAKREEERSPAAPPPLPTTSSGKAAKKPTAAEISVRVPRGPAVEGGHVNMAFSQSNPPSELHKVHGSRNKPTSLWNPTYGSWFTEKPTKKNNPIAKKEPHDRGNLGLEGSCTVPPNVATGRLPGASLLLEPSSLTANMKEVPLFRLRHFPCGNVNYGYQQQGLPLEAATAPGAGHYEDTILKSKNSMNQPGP

Measured: binding

B1: Monoclonal anti-ALK antibody 5H3 (antibody, IgG1, V domains shown)
VH: QVQLQQSGAELVRPGASVTLSCKASGYTFTDYEMHWVKQTPVHGLEWIGAIDPETGGSAYNQKFKAKAILTADRSSSTAYMELRSLTSEDSAVYYCTRTRYYGSSPAMDYWGQGTSVTVSS
VL: DIQMTQTTSSLSASLGDRVTISCSASQGIGNYLNWYQQKPDGTVKLLIYYTSSLHSGVPSRFSGSGSGTDYSLTISNLEPEDIATYYCQQYSKLPYTFGGGTKLEIKR
binds: [1] | [2] | [3] | [4] | [5] | [6]
